Residue numbers refer to the chain shown, from its start. No constants are given. Whether binding was seen depends on the method and setting. In cells and extracts the contact can be indirect. Some binding calls cover weakened binding; strength is not graded here. Sequences can lack the tags named with a protein.

This is an account of results in paper PMC4488328.

This assay concerns the target T1, Salvador (Sav), Myc-tagged (Drosophila) (UniProt Q9VCR6).
T1 sequence: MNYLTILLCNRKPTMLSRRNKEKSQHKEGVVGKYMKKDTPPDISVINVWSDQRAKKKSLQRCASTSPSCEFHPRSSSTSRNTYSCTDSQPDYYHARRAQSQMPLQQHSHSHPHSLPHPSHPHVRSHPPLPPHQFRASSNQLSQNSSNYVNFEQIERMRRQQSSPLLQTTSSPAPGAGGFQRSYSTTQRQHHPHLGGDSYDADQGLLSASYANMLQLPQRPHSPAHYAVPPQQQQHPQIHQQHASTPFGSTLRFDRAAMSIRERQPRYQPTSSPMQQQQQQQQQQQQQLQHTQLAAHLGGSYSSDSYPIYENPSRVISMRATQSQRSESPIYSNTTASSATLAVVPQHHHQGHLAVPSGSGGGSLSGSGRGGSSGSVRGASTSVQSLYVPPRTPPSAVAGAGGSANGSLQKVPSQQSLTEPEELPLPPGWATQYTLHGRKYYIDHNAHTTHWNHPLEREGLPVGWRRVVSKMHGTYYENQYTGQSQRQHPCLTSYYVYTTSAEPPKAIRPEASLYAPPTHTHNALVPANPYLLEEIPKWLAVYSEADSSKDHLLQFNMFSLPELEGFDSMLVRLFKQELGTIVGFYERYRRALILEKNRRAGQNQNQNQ
Kind of assay: co-IP; within the Sav ubiquitylation assay: S2 cells transfected with Myc-Sav (or Sav∆N, Sav∆C), HA-ubiquitin and Herc4 and/or Hpo constructs; proteasome inhibitors 4 h unless stated otherwise (5 mM NEM in Fig 8A); anti-Myc immunoprecipitation with Protein A Sepharose; western blot. On the technique in general: In western blotting, separated proteins are transferred to a membrane and probed.

B1: Hippo (Hpo) (enzyme, UniProt Q8T0S6 1-669)
chain: MSEPEVTSVVDMKSPNISSSCSFFKLKKLSEESLLQPPEKVFDIMYKLGEGSYGSVYKAVHKESSSIVAIKLVPVESDLHEIIKEISIMQQCDSPYVVRYYGSYFKQYDLWICMEYCGAGSVSDIMRLRKKTLTEDEIATILSDTLQGLVYLHLRRKIHRDIKAANILLNTEGYAKLADFGVAGQLTDTMAKRNTVIGTPFWMAPEVIEEIGYDCVADIWSLGITALEMAEGKPPYGEIHPMRAIFMIPQKPPPSFREPDRWSTEFIDFVSKCLVKEPDDRATATELLEHEFIRNAKHRSILKPMLEETCAIREQQRANRSFGGVLAASQAKSLATQENGMQQHITDNAFMEDPGTLVPEKFGEYQQSSASDATMIAHAEQGVDEGTLGPGGLRNLSKAAAPAAASSAASPLDMPAVDSGTMVELESNLGTMVINSDSDDSTTAKNNDDQKPRNRYRPQFLEHFDRKNAGDGRGDEKPIATEYSPAAAEQQQQQQQQQQQQQQDEQHLASGANDLNNWEHNMEMQFQQISAINQYGLQQHQQQQQVLMAYPLMNEQLIALNNQPNLLLSNAAPMGQQGIPAAAPAQPPPAYQNQHMHTQSHAYVEGEFEFLKFLTFDDLNQRLCNIDHEMELEIEQLNKKYNAKRQPIVDAMNAKRKRQQNINNNLIKI
On to B1, for which the binding entry was “binds”.

B2: HpoT195A (kinase-dead Hpo, T-loop mutant) (enzyme, UniProt Q8T0S6 1-669)
chain: B1 chain with T195A
As to B2, the binding result is on record as “binds”.
